From article PMC10809671
Results are given in words; binding and its absence hold for the method and conditions named. Binding seen in cells or lysates may run through a third protein. Binding can be weak; no strength is given. Sequences can lack the tags named with a protein.

By UniProt entry, the sequences of proteins in these tests, tags left out. Where a name states a change or a piece, a line headed by the entry shows the natural chain unless it says otherwise.
UniProt P47756: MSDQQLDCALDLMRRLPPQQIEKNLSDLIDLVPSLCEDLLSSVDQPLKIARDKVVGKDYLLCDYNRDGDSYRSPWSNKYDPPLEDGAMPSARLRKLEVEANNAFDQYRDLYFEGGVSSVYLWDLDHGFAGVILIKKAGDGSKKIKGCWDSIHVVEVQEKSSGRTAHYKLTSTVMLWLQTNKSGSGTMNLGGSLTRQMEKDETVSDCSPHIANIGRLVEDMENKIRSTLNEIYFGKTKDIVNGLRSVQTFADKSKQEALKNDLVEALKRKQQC
UniProt Q9UJ41: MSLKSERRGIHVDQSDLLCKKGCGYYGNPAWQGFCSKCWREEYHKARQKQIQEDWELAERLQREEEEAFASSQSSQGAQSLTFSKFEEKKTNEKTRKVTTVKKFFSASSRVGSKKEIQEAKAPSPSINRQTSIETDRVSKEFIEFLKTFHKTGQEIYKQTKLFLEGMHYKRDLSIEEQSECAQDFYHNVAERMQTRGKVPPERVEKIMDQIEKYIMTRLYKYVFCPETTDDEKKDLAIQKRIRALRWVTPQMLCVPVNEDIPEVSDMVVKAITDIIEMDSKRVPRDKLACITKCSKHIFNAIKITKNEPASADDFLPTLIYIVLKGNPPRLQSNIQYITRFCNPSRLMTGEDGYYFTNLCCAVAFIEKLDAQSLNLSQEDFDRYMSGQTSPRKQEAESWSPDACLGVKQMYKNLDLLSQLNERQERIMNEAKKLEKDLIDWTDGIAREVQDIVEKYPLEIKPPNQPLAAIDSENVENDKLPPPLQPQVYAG

Molecular target: Myc-CapZβ (UniProt P47756)
Test: co-IP; HEK 293T cells co-transfected with Myc-CapZβ and the tagged partner, treated with DMSO or V1 (1 μM) for 12 h; lysis buffer 50 mM Tris-HCl pH 7.5, 150 mM NaCl, 1 mM EDTA, 1% Triton X-100; lysate on anti-c-Myc magnetic beads at 4 °C overnight; immunoblot against HA or Flag tag

binding	Molecule
binds	HA-Rabex-5 (from UniProt Q9UJ41 1-491)
binds	Flag-Rabaptin-5 (protein, UniProt Q15276 1-862) MAQPGPASQPDVSLQQRVAELEKINAEFLRAQQQLEQEFNQKRAKFKELYLAKEEDLKRQNAVLQAAQDDLGHLRTQLWEAQAEMENIKAIATVSENTKQEAIDEVKRQWREEVASLQAVMKETVRDYEHQFHLRLEQERTQWAQYRESAEREIADLRRRLSEGQEEENLENEMKKAQEDAEKLRSVVMPMEKEIAALKDKLTEAEDKIKELEASKVKELNHYLEAEKSCRTDLEMYVAVLNTQKSVLQEDAEKLRKELHEVCHLLEQERQQHNQLKHTWQKANDQFLESQRLLMRDMQRMEIVLTSEQLRQVEELKKKDQEDDEQQRLNKRKDHKKADVEEEIKIPVVCALTQEESSAQLSNEEEHLDSTRGSVHSLDAGLLLPSGDPFSKSDNDMFKDGLRRAQSTDSLGTSGSLQSKALGYNYKAKSAGNLDESDFGPLVGADSVSENFDTASLGSLQMPSGFMLTKDQERAIKAMTPEQEETASLLSSVTQGMESAYVSPSGYRLVSETEWNLLQKEVHNAGNKLGRRCDMCSNYEKQLQGIQIQEAETRDQVKKLQLMLRQANDQLEKTMKDKQELEDFIKQSSEDSSHQISALVLRAQASEILLEELQQGLSQAKRDVQEQMAVLMQSREQVSEELVRLQKDNDSLQGKHSLHVSLQQAEDFILPDTTEALRELVLKYREDIINVRTAADHVEEKLKAEILFLKEQIQAEQCLKENLEETLQLEIENCKEEIASISSLKAELERIKVEKGQLESTLREKSQQLESLQEIKISLEEQLKKETAAKATVEQLMFEEKNKAQRLQTELDVSEQVQRDFVKLSQTLQVQLERIRQADSLERIRAILNDTKLTDINQLPET
